The text below walks through data of the supplement of paper PMC12819154, “High-throughput peptide-centric local stability assay extends protein–ligand identification to membrane proteins, tissues and bacteria” (Nature Structural & Molecular Biology, 2025).

Protein sequences, listed by entry. Tags and fused reporters are not part of them. Lines headed by an entry give the natural chain unless they say otherwise; changes in a name come on top.
UniProt O75131: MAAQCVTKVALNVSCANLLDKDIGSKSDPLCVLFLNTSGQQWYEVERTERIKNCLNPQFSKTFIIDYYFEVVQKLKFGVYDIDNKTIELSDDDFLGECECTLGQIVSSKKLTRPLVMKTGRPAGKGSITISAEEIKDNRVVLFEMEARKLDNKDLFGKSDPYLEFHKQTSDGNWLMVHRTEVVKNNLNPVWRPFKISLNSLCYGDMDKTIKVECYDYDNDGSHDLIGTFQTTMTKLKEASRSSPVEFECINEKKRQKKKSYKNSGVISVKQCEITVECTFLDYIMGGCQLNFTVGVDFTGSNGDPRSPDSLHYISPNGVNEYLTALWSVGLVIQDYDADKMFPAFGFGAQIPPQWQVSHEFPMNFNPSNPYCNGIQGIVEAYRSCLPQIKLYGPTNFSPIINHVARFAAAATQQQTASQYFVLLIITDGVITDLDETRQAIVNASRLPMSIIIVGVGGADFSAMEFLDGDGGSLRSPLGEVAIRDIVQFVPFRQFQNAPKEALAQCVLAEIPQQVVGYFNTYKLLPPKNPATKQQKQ
UniProt O43929: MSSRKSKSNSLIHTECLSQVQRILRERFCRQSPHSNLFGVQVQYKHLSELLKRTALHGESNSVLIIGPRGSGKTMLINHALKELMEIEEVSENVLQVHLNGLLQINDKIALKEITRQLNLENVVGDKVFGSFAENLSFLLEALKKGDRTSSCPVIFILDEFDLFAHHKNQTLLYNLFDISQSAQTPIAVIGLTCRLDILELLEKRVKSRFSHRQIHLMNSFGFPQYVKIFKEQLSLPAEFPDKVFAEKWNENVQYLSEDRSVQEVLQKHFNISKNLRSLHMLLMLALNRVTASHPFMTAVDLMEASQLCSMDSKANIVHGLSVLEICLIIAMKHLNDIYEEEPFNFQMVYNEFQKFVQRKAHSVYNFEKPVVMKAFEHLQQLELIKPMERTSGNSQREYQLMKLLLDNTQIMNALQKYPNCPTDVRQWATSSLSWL
UniProt O43913: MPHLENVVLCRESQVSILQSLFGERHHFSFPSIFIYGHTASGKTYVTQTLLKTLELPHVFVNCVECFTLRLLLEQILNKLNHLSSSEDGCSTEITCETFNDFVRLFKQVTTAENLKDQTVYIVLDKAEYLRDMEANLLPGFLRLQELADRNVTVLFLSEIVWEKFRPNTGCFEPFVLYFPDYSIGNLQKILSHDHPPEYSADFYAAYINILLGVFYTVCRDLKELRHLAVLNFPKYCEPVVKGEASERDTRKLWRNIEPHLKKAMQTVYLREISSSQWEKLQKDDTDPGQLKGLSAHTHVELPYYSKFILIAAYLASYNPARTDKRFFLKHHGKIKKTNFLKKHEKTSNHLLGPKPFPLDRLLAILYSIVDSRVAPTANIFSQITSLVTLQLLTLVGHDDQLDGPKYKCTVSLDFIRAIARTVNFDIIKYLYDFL
UniProt O60869: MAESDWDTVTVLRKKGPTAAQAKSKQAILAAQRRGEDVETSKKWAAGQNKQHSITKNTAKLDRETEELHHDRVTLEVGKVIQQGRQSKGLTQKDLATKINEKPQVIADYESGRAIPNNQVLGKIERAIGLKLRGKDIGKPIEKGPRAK
UniProt O60294: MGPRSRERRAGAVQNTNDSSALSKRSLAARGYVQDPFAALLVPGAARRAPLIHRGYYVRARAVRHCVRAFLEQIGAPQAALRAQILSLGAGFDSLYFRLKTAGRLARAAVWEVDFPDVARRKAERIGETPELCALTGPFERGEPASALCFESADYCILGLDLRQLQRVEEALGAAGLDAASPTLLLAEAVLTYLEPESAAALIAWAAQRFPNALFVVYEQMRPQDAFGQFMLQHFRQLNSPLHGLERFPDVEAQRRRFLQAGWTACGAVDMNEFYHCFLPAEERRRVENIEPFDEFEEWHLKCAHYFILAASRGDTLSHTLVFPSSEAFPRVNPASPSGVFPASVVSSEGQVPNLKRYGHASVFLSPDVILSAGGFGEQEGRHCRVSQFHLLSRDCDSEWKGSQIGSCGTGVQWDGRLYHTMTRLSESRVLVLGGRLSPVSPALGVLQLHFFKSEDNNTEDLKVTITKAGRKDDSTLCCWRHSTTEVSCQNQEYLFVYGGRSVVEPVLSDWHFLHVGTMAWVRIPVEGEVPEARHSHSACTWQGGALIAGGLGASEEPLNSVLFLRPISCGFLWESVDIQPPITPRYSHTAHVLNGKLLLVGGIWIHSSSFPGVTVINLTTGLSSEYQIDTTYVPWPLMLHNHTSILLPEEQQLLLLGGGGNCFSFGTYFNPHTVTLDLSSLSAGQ
UniProt O43566: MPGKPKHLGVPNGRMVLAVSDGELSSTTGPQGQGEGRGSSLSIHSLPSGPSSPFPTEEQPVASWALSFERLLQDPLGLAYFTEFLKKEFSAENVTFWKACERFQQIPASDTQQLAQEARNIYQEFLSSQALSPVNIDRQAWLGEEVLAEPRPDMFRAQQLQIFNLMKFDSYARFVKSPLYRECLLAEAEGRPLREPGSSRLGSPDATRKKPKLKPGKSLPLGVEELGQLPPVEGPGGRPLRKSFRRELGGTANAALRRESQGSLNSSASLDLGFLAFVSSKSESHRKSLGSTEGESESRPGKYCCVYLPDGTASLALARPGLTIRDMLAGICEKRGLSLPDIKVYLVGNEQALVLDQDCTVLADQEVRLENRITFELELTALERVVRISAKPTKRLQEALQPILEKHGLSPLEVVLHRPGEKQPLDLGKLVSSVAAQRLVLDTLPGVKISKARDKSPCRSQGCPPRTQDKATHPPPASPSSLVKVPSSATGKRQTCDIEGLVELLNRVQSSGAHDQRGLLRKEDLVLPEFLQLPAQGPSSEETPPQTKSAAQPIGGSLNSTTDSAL
UniProt O15534, whole entry: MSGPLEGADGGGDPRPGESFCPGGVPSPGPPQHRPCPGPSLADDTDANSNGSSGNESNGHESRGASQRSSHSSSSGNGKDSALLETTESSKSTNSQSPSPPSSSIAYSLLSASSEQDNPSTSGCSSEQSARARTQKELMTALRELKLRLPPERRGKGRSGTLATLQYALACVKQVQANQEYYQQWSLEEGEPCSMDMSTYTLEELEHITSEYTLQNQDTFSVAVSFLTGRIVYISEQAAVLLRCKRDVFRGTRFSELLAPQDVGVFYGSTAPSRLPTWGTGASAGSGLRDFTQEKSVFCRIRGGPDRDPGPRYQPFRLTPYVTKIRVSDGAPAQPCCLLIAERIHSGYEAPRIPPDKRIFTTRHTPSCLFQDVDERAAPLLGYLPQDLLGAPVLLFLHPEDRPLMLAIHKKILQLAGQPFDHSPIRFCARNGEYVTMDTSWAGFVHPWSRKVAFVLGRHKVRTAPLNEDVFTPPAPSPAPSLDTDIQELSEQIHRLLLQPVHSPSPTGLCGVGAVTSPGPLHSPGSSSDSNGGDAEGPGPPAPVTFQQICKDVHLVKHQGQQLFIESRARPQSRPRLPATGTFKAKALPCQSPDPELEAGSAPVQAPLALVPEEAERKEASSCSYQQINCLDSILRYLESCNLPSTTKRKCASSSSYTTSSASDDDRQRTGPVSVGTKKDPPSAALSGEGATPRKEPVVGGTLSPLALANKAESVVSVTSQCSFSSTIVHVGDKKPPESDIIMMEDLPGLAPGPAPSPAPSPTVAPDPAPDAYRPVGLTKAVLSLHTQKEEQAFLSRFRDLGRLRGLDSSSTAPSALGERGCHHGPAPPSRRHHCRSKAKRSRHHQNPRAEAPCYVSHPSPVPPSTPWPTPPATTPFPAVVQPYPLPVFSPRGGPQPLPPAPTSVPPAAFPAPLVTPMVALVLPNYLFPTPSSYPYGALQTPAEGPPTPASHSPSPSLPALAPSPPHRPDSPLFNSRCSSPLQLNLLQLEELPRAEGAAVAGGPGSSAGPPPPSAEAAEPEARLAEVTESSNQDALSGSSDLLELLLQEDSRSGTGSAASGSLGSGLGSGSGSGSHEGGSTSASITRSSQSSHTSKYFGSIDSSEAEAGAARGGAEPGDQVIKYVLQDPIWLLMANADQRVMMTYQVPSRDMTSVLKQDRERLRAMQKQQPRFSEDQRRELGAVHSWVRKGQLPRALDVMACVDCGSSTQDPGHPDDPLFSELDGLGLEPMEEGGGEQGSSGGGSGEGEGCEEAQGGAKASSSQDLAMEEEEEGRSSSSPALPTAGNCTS
UniProt O75132: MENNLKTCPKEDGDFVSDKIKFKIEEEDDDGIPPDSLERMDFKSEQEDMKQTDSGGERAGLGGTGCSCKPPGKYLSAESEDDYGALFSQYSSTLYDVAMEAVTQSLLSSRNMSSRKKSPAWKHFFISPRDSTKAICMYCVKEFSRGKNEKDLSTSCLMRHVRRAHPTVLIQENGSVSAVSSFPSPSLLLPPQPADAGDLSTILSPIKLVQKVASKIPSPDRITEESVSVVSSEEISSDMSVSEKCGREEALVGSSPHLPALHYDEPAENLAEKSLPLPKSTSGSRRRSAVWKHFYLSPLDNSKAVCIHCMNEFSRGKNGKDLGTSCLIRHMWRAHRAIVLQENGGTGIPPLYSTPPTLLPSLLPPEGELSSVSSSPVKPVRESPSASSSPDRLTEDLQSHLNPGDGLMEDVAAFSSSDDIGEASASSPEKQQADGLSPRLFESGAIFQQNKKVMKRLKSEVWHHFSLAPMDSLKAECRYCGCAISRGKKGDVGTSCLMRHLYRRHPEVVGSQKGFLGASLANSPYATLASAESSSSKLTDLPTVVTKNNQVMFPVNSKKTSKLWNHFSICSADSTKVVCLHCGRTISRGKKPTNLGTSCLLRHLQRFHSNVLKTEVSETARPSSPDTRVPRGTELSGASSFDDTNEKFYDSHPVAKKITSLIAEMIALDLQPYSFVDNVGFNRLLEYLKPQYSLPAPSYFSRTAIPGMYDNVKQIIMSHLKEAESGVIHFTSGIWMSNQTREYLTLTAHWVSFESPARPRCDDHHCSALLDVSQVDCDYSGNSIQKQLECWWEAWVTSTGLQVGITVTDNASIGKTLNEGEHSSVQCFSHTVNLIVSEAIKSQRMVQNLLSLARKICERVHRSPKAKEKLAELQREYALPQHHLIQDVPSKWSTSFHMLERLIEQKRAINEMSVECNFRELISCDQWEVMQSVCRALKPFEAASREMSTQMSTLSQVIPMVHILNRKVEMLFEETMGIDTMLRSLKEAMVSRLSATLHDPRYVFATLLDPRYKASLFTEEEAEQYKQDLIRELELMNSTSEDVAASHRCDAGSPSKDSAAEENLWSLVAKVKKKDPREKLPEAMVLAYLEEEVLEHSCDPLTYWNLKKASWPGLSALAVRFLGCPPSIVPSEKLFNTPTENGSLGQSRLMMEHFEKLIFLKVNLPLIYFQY
UniProt O75348, whole entry: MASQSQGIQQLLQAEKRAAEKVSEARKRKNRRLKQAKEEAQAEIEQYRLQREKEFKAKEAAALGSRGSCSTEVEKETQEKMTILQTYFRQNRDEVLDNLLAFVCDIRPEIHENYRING
UniProt O43196: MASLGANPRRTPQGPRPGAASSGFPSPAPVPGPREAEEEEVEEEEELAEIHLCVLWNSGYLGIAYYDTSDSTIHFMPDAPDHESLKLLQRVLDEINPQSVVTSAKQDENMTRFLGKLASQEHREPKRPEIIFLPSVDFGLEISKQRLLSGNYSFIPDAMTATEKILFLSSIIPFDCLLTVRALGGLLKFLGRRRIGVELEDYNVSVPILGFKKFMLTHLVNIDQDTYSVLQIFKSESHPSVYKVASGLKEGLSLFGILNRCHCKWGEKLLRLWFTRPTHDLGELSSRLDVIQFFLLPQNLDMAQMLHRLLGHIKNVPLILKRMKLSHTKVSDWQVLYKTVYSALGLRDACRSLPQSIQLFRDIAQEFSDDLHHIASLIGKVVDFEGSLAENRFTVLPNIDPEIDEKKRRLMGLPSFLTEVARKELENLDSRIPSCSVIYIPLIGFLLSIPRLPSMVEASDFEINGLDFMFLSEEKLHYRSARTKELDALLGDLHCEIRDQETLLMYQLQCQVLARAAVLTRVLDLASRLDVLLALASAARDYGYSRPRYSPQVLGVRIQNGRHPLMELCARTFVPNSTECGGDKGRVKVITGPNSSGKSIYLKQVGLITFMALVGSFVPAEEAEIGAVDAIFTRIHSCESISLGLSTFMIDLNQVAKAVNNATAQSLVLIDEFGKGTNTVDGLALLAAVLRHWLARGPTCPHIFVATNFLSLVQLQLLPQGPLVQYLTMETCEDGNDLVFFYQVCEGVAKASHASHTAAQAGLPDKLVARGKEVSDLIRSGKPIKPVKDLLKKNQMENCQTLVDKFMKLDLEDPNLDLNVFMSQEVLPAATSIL
UniProt O75190: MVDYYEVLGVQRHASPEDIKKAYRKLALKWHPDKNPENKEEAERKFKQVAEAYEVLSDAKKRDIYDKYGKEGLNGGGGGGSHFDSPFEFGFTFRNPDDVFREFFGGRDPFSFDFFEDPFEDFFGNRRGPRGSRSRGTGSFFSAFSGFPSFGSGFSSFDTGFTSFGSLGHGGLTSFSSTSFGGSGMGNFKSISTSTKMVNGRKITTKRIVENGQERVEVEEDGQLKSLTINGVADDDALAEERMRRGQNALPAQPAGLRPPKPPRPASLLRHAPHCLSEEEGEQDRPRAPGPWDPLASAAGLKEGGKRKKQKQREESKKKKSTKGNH

Some of the results follow. Most values lie at the level of the controls, where differences are scatter.

Compound in the assay: Cc1nc(Nc2ncc(C(=O)Nc3c(C)cccc3Cl)s2)cc(N2CCN(CCO)CC2)n1 [dasatinib]
As to the kind of experiment: log2 fold change of tryptic peptide abundance, ligand vs vehicle (limited proteolysis) (log2 ratio); higher = more trypsin-susceptible (destabilized). The following applies: ligand concentration: 5 uM; sample: K562 cleared lysate.
Turning to “OPHN1 (peptide sequence: TLTMTPMEQKPGAK, peptide start residue: 297) (UniProt O60890)”, the log2 fold change is 0.73.
Turning to “CPNE3 (peptide sequence: SPLGEVAIR, peptide start residue: 476) (UniProt O75131)”, the log2 fold change was -0.178.
Consider “CBFA2T2 (peptide sequence: YCGSFCQHKDWER, peptide start residue: 526) (UniProt O43439)”, for which the log2 fold change is -1.76.
As to “UniProt O43929 (peptide sequence: QIHLMNSFGFPQYVK, peptide start residue: 214)”, the log2 fold change came to 0.114.
With “PEX14 (peptide sequence: IPSWQIPVK, peptide start residue: 238) (UniProt O75381)” the figure was 0.513; with “UniProt O43187 (peptide sequence: ETACSSPGSIER, peptide start residue: 241)”, -0.399.
Regarding “ACTN4 (peptide sequence: ICDQWDALGSLTHSRR, peptide start residue: 498) (UniProt O43707)”, the log2 fold change was found to be 0.164.
Regarding “UniProt O75164 (peptide sequence: YIAYIESQGAHR, peptide start residue: 30)”, the log2 fold change is -0.235.
With “UniProt O60443 (peptide sequence: CGGIVGIQTK, peptide start residue: 180)” the figure was -0.141; with “UniProt O43913 (peptide sequence: TYVTQTLLK, peptide start residue: 44)”, 0.149; with “EDF1 (peptide sequence: ETEELHHDR, peptide start residue: 64) (UniProt O60869)”, 0.129.
With “LCMT2 (peptide sequence: DCDSEWK, peptide start residue: 395) (UniProt O60294)” the figure was 0.525; with “RGS14 (peptide sequence: LQEALQPILEK, peptide start residue: 396) (UniProt O43566)”, -0.0642.
Then “SDC3 (peptide sequence: ALPRPATTQEPDIPER, peptide start residue: 258) (UniProt O75056)”, with -0.191.
On to “PER1 (peptide sequence: AVLSLHTQKEEQAFLSR, peptide start residue: 781) (UniProt O15534)”, for which the log2 fold change is 0.557.
With “UniProt O60610 (peptide sequence: HLQIEIEGLIDQMIDKTKVEK, peptide start residue: 456)” the figure was 0.372; with “UniProt O43504 (peptide sequence: GTLSDEHAGVISVLAQQAAK, peptide start residue: 35)”, -0.0148.
As for “ZBED4 (peptide sequence: LTDLPTVVTK, peptide start residue: 538) (UniProt O75132)”, the log2 fold change was determined as 0.238.
Then “NMT2 (peptide sequence: IQQPSKNPSVPMQK, peptide start residue: 77) (UniProt O60551)”, with 0.0875; and “ATP6V1G1 (peptide sequence: LKQAKEEAQAEIEQYR, peptide start residue: 33) (UniProt O75348)”, with 0.374; and “MSH5 (peptide sequence: GKEVSDLIR, peptide start residue: 771) (UniProt O43196)”, with -0.198.
As to “PRPF40A (peptide sequence: KEEEESQPAKK, peptide start residue: 376) (UniProt O75400)”, the log2 fold change is -0.11.
As for “KPNA6 (peptide sequence: VVDRFVEFLKR, peptide start residue: 125) (UniProt O60684)”, the log2 fold change is -0.202.
In the case of “DNAJA2 (peptide sequence: VSLEDLYNGKTTK, peptide start residue: 122) (UniProt O60884)”, the log2 fold change came out at 0.479.
Then “SYNJ1 (peptide sequence: AQLSVQTSPVPTPDPKR, peptide start residue: 1338) (UniProt O43426)”, with -0.703.
As for “DNAJB6 (peptide sequence: DIYDKYGK, peptide start residue: 63) (UniProt O75190)”, the log2 fold change was -0.197.
